Source: patent US20060265780A1, “Interaction of glyphosate with photosystem II inhibitor herbicides as a selection tool for roundup ready events” (Monsanto Technology LLC, priority 2005, published 2006)
Some of these results come from one statement about several compounds together.

Legend:
[1] = tested on: DKC 53-33 Roundup Ready corn hybrid (NK 603 event); test: Greenhouse glyphosate/PSII inhibitor injury assay, Example 1; format: in vivo; conditions: single application, treated at 3 leaves unfolded (GS 13)
[2] = tested on: DK 580 Roundup Ready corn hybrid (GA 21 event); test: as above; format: in vivo; conditions: single application, treated at 3 leaves unfolded (GS 13)

For `O=C(O)CNCP(=O)(O)O` [glyphosate, N-phosphonomethylglycine], the injury [1] was under 3% and the injury [2] was under 3%.
